Taken from: PubChem BioAssay AID1224826 (NIAID, 2016)
Here is a random part of about 17,000 deposited reagents. About 1,110 of all reagents (6.6%) count as active. 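Active means lowered or raised reporter signal; replicate intensities are raw and not normalised per plate.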 Entries without a mark were called inactive. Further read-outs or replicates are left out here.

Assay: 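Regulators of Tlr4 signalling leading to Tnf-alpha expression in macrophages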 (primary screen)
Cell system: RAW264.7 G9 macrophages from mouse bearing reporters for p65 (GFP) and the Tnf promoter (mCherry)
Knock-down reagent: siRNA pool against mouse genes, 100 nM
Time to read-out: 16 h of LPS stimulation, after 2 days of siRNA transfection
Treatment: bacterial lipopolysaccharide (Salmonella minnesota R595), 10 ng/ml
Read-out: 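Nuclear mCherry signal of the Tnf promoter reporter measured by imaging after background removal, scaled to each plate median and turned into robust z-scores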
Reading the numbers: Tnf reporter robust z-score: higher = stronger Tnf promoter reporter signal after LPS
Rule for the call: 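Called active when robust z-score is at most -1.3, matching the median of the Tlr4 knock-down control, or over 3; control wells and wells with under 50 cells never active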
Meaning of the calls: active = Tnf reporter clearly lowered or raised; inactive = no clear change in Tnf reporter

After knock-down of Lats2 [SID315470805], the record shows Tnf reporter robust z-score 0.49; fewer than 50 cells in well enough cells in well. Against Ythdf1 [SID315478681], the values are fewer than 50 cells in well fewer than 50 cells per well; well left out of calls. Tctn2 [SID315473345] showed Tnf reporter robust z-score 1.56; fewer than 50 cells in well enough cells in well. Depletion of Cyp2f2 [SID315466237] resulted in: Tnf reporter robust z-score 1.88; fewer than 50 cells in well enough cells in well. After knock-down of Ost4 [SID315473173] the results were fewer than 50 cells in well fewer than 50 cells per well; well left out of calls. With knock-down of Psmd6 [SID315472430], the screen gave fewer than 50 cells in well fewer than 50 cells per well; well left out of calls.

Tex14 [SID315475842] gave Tnf reporter robust z-score 1.45; fewer than 50 cells in well enough cells in well. Knock-down of Ube2c [SID315473581] gave: Tnf reporter robust z-score 0.56; fewer than 50 cells in well enough cells in well. After knock-down of Nsmce1 [SID315473183], the screen gave Tnf reporter robust z-score 0.44; fewer than 50 cells in well enough cells in well. After knock-down of Vmn1r-ps8 [SID315476989], the record shows Tnf reporter robust z-score -0.64; fewer than 50 cells in well enough cells in well. Against Spon1 [SID315479099], the values are Tnf reporter robust z-score 3.48 (active); fewer than 50 cells in well enough cells in well. Against Yeats4 [SID315472056], the values are Tnf reporter robust z-score -0.29; fewer than 50 cells in well enough cells in well.

Ahdc1 [SID315478828] scored Tnf reporter robust z-score 0.91; fewer than 50 cells in well enough cells in well. Against Ipmk [SID315473879], the entry reads Tnf reporter robust z-score -0.15; fewer than 50 cells in well enough cells in well.

A portion of the results above, as a working copy:
Cyp2f2 [SID315466237] | Tnf reporter robust z-score = 1.88; fewer than 50 cells in well = enough cells in well
Ost4 [SID315473173] | fewer than 50 cells in well = fewer than 50 cells per well; well left out of calls
